PubChem BioAssay AID743454 – Peter MacCallum Cancer Centre – 2014

Assay: 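Knock-downs lowering viability or raising caspase 3/7 activity in vorinostat-treated resistant cells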 (primary screen)
System: human HCT116-VR colon cancer cells, selected for vorinostat resistance
Reagent: siRNA pool against human genes, 40 nM siRNA pool
Time to read-out: vorinostat for 24 h, read-out about 72 h after transfection
Conditions: vorinostat at 2.5 µM final
Measurement: 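Cell viability by CellTiter-Fluor and caspase 3/7 activity by luminescence, each scaled to mock wells per plate, duplicates averaged, then robust z-scored over all plates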
Reading the numbers: viability robust z-score: higher = more viable cells than screen typical; caspase robust z-score: higher = more caspase 3/7 activity than screen typical
Active means: 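Hits are knock-downs in viability class RV1/RV2 or caspase class CA1/CA2, excluding ones that killed cells in the no-drug cell-count arm; hits then retested with single siRNAs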
The whole screen tested about 18,000 reagents; shown is a part drawn at random. Of all reagents, 450 (2.5%) got an active call. 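Single biological run; no consistent viability z cut-off exists, so the class columns, not z-scores, define the calls.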

For ALDH3A1 (GeneID 218), the values are viability hit class no change; caspase hit class no change; viability robust z-score 0.6; caspase robust z-score -0.04; inactive.
REXO4 (GeneID 57109) gave viability hit class no change; caspase hit class no change; viability robust z-score -2.42; caspase robust z-score -0.02; inactive.
Against CYP4A22 (GeneID 284541), the entry reads viability hit class no change; caspase hit class no change; viability robust z-score -1.01; caspase robust z-score 1.22; inactive.
CEMIP (GeneID 57214) showed viability hit class no change; caspase hit class no change; viability robust z-score 1.36; caspase robust z-score -0.64; inactive.
For LCE3C (GeneID 353144), the values are viability hit class no change; caspase hit class CA1 (caspase activation); viability robust z-score 0.1; caspase robust z-score 7.81; active.
For TRIM54 (GeneID 57159), the entry reads viability hit class no change; caspase hit class no change; viability robust z-score -2.27; caspase robust z-score 3.58; inactive.
Knock-down of ARHGAP45 (GeneID 23526) gave: viability hit class no change; caspase hit class no change; viability robust z-score 0.96; caspase robust z-score -0.13; inactive.
RLF (GeneID 6018) gave viability hit class no change; caspase hit class no change; viability robust z-score -0.82; caspase robust z-score 1.21; inactive.

Just “viability robust z-score”, for 4 of the entries above:
ALDH3A1 (GeneID 218): 0.6
REXO4 (GeneID 57109): -2.42
CYP4A22 (GeneID 284541): -1.01
CEMIP (GeneID 57214): 1.36

Additional records follow.
For SCUBE3 (GeneID 222663), the values are viability hit class no change; caspase hit class no change; viability robust z-score -0.43; caspase robust z-score 0.44; inactive.
Depletion of ARR3 (GeneID 407) came out at: viability hit class no change; caspase hit class no change; viability robust z-score 1.17; caspase robust z-score -0.13; inactive.
Depletion of IMPA2 (GeneID 3613) came out at: viability hit class no change; caspase hit class no change; viability robust z-score 0.75; caspase robust z-score 4.38; inactive.
Against CTSF (GeneID 8722), the entry reads viability hit class no change; caspase hit class no change; viability robust z-score 0.38; caspase robust z-score 1.47; inactive.
TNFRSF10A (GeneID 8797) scored viability hit class no change; caspase hit class no change; viability robust z-score 0.02; caspase robust z-score -0.84; inactive.
With knock-down of NDUFV1 (GeneID 4723), the record shows viability hit class no change; caspase hit class no change; viability robust z-score -0.36; caspase robust z-score -0.78; inactive.
After knock-down of NXPE1 (GeneID 120400), the screen gave viability hit class no change; caspase hit class CA2 (caspase activation); viability robust z-score -1.92; caspase robust z-score 5.38; active.
SLC7A3 (GeneID 84889) showed viability hit class no change; caspase hit class no change; viability robust z-score 0.34; caspase robust z-score -0.42; inactive.
For CCNI (GeneID 10983), the entry reads viability hit class no change; caspase hit class no change; viability robust z-score 0.05; caspase robust z-score 2.11; inactive.
Silencing of OR4C46 (GeneID 119749) came out at: viability hit class no change; caspase hit class no change; viability robust z-score -0.82; caspase robust z-score 0.27; inactive.
Against NCKAP5 (GeneID 344148) the deposit lists viability hit class no change; caspase hit class no change; viability robust z-score 0.46; caspase robust z-score 1.35; inactive.
Silencing of ADAT1 (GeneID 23536) came out at: viability hit class no change; caspase hit class no change; viability robust z-score 1.06; caspase robust z-score -0.49; inactive.
With knock-down of OSBPL5 (GeneID 114879) the results were viability hit class no change; caspase hit class no change; viability robust z-score 0.62; caspase robust z-score -0.63; inactive.
